Assay results reported in paper doi:10.1101/2024.04.22.590536 (bioRxiv, 2024).
Results are given in words; binding and its absence hold for the method and conditions named. Some entries that bind do so weakly or less than the wild type. Sequences can lack the tags named with a protein.

Assays:
Assay in all cases: two-hybrid
[1] = molecular target: T1, Ifh1 fused to the GAL4 DNA binding domain (S. cerevisiae) (UniProt P39520)
T1 sequence: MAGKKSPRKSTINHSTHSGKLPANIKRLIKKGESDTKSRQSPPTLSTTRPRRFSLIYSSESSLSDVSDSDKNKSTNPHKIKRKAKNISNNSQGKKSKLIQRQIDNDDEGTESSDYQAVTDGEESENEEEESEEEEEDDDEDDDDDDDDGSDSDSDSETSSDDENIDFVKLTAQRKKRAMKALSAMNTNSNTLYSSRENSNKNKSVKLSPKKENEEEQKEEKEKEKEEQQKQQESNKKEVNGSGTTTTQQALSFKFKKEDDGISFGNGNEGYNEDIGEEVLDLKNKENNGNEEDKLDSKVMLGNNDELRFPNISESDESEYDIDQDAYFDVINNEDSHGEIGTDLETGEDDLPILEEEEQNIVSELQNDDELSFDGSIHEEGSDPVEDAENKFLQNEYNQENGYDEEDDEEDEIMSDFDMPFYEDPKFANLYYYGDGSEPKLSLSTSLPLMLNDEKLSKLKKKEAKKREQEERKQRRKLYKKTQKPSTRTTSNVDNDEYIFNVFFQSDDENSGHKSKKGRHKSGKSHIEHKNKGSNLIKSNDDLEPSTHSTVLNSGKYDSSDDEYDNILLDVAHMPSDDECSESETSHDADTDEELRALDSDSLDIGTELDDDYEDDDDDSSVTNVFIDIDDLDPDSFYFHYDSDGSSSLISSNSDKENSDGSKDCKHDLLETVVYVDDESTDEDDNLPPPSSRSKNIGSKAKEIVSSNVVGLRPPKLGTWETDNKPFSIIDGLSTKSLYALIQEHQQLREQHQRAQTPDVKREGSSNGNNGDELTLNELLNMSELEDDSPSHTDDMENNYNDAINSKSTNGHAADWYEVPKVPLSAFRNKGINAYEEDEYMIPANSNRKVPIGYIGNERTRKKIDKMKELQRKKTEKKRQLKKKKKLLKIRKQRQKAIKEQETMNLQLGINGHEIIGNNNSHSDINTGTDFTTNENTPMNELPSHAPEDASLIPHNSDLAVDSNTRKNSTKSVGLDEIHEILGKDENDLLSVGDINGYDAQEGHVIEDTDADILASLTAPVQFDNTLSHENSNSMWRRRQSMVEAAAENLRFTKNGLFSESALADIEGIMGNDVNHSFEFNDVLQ

[2] = molecular target: T2, Utp22 fused to the GAL4 DNA binding domain (S. cerevisiae) (UniProt P53254)
T2 sequence: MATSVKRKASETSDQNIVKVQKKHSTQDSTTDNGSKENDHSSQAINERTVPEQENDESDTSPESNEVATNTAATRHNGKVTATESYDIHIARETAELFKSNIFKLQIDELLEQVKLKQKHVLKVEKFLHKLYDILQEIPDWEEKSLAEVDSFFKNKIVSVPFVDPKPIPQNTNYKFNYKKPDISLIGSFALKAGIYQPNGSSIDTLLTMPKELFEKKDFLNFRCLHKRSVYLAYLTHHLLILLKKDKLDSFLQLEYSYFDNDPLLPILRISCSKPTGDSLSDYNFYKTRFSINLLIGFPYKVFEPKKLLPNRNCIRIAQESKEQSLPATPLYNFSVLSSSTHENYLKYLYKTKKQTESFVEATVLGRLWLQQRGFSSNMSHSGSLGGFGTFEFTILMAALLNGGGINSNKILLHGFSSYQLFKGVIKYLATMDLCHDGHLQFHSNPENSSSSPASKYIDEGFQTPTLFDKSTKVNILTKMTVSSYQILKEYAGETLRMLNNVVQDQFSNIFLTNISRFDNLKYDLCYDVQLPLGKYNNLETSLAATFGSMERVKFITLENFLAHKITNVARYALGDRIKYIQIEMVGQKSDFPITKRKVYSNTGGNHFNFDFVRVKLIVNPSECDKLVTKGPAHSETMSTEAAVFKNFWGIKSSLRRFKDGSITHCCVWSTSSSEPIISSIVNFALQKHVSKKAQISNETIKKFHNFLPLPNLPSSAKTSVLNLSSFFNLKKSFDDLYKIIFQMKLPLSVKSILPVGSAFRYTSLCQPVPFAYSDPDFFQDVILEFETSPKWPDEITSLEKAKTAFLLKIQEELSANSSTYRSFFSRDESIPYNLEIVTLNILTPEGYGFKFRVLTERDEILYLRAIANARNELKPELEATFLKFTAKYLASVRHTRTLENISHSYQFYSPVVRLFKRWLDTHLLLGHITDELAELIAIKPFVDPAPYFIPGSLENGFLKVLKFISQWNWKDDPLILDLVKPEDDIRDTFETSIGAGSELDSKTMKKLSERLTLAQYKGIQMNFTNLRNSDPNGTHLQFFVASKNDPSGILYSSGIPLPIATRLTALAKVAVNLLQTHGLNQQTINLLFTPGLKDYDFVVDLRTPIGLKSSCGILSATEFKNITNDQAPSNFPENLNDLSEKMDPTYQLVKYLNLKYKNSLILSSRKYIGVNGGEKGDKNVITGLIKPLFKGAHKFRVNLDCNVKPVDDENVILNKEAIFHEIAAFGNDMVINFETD

[3] = molecular target: T3, Rrp7 fused to the GAL4 DNA binding domain (S. cerevisiae) (UniProt P25368)
T3 sequence: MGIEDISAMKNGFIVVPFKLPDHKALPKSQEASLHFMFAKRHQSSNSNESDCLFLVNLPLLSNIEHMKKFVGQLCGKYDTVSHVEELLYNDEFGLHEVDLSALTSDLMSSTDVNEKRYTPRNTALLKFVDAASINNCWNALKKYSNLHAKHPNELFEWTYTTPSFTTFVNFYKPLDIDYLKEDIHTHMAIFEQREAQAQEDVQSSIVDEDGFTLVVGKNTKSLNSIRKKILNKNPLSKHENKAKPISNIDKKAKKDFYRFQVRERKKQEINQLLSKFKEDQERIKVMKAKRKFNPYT

binding [1]: binds
binding [2]: binds
binding [3]: binds
B1: Stm1 fused to the GAL4 activation domain (protein, UniProt P39015 1-273)
chain: MSNPFDLLGNDVEDADVVVLPPKEIVKSNTSSKKADVPPPSADPSKARKNRPRPSGNEGAIRDKTAGRRNNRSKDVTDSATTKKSNTRRATDRHSRTGKTDTKKKVNQGWGDDKKELSAEKEAQADAAAEIAEDAAEAEDAGKPKTAQLSLQDYLNQQANNQFNKVPEAKKVELDAERIETAEKEAYVPATKVKNVKSKQLKTKEYLEFDATFVESNTRKNFGDRNNNSRNNFNNRRGGRGARKGNNTANATNSANTVQKNRNIDVSNLPSLA
